PubChem BioAssay AID504774 | Drosophila RNAi Screening Center | 2011
Test: 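Genes required for cells to withstand methyl methanesulphonate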 (primary screen). System: Drosophila Kc167 cells. Reagents: long dsRNA against Drosophila genes, about 0.25 µg dsRNA per well. Time to read-out: about 6 days: 3 days knock-down, then 3 days with or without MMS. Treatment: methyl methanesulphonate 0.004% (w/v) for 3 days after knock-down. Detection: 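Viability in wells given MMS, read as ATP luminescence, normalised by quantiles plate by plate and averaged across replicates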. Direction: mean viability with MMS and viability with MMS: higher = more surviving cells after MMS.
The deposit covers about 23,000 reagents; below is an unselected part of those that have a named target and a result. 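Values are quantile-normalised luminescence on an arbitrary scale; higher means more cells surviving MMS.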 Reagents against one gene are numbered here.

| target | dsRNA no. | mean viability with MMS | viability with MMS, replicate 1 | viability with MMS, replicate 2 |
| --- | --- | --- | --- | --- |
| Cyp312a1 | 1 | 3.57e6 | 4.12e6 | 3.98e6 |
| COX5BL | 1 | 3.71e6 | 4.09e6 | 4.23e6 |
| stac | 1 | 3.58e6 | 4.07e6 | 4.04e6 |
| stac | 2 | 3.39e6 | 3.81e6 | 3.79e6 |
| stac | 3 | 3.41e6 | 3.87e6 | 3.95e6 |
| Evi5 | 1 | 3.53e6 | 3.98e6 | 4.01e6 |
| Prp8 | 1 | 3.13e6 | 3.62e6 | 3.68e6 |
| Ugt301D1 | 1 | 3.24e6 | 3.70e6 | 3.68e6 |
| Dnah3 | 1 | 3.57e6 | 4.00e6 | 4.10e6 |
| Dnah3 | 2 | 3.59e6 | 4.11e6 | 4.05e6 |
| CG1785 | 1 | 3.53e6 | 3.94e6 | 4.04e6 |
| Rpt4 | 1 | 2.83e6 | 3.38e6 | 3.46e6 |
| Trap1 | 1 | 3.48e6 | 3.93e6 | 4.08e6 |
| CG15107 | 1 | 3.46e6 | 4.08e6 | 3.75e6 |
| Mo25 | 1 | 3.34e6 | 3.84e6 | 3.71e6 |
| Dup99B | 1 | 3.39e6 | 3.87e6 | 3.92e6 |
| Sgf11 | 1 | 3.47e6 | 3.91e6 | 3.94e6 |
| CG42724 | 1 | 3.14e6 | 3.65e6 | 3.61e6 |
| CG42724 | 2 | 2.55e6 | 3.69e6 | 3.69e6 |
| Kal1 | 1 | 3.46e6 | 3.91e6 | 3.93e6 |
| CG10413 | 1 | 3.60e6 | 3.89e6 | 4.31e6 |
| SmydA-5 | 1 | 3.43e6 | 3.94e6 | 3.80e6 |
| Hsp110 | 1 | 3.34e6 | 3.78e6 | 3.75e6 |
| CG6985 | 1 | 3.65e6 | 4.20e6 | 4.03e6 |
| CG2124 | 1 | 3.49e6 | 3.98e6 | 3.91e6 |
| TpnC25D | 1 | 3.47e6 | 3.93e6 | 3.95e6 |
| CG11825 | 1 | 3.57e6 | 4.02e6 | 4.06e6 |
| Or35a | 1 | 3.55e6 | 3.99e6 | 4.06e6 |
| CG17739 | 1 | 3.54e6 | 3.97e6 | 4.05e6 |
| Svil | 1 | 3.68e6 | 3.88e6 | 4.43e6 |
| Svil | 2 | 3.54e6 | 3.99e6 | 4.02e6 |
| Svil | 3 | 3.59e6 | 4.08e6 | 4.03e6 |
| Svil | 4 | 2.84e6 | 3.55e6 | 3.57e6 |
| Svil | 5 | 3.59e6 | 4.05e6 | 4.06e6 |
| Acsl | 1 | 3.40e6 | 3.87e6 | 3.79e6 |
| CG1598 | 1 | 3.42e6 | 3.89e6 | 3.88e6 |
| CG5281 | 1 | 3.49e6 | 3.99e6 | 3.94e6 |
| Ccz1 | 1 | 3.47e6 | 4.00e6 | 3.87e6 |
| Gr59e | 1 | 3.54e6 | 3.89e6 | 4.15e6 |
| Non1 | 1 | 3.49e6 | 4.02e6 | 3.87e6 |
| CG10589 | 1 | 3.44e6 | 3.78e6 | 3.98e6 |
| CG9518 | 1 | 3.62e6 | 4.14e6 | 4.05e6 |
| Or94a | 1 | 3.74e6 | 4.31e6 | 4.15e6 |
| CG32379 | 1 | 3.49e6 | 3.91e6 | 4.01e6 |
| CG6865 | 1 | 3.33e6 | 3.69e6 | 3.79e6 |
| IntS14 | 1 | 3.85e6 | 4.39e6 | 4.36e6 |
| CG15522 | 1 | 3.38e6 | 3.80e6 | 3.79e6 |
| Sce | 1 | 3.69e6 | 4.30e6 | 4.04e6 |
| Grip75 | 1 | 3.51e6 | 3.97e6 | 3.99e6 |
| CG3117 | 1 | 3.38e6 | 3.75e6 | 3.85e6 |
| intr | 1 | 3.49e6 | 3.94e6 | 3.99e6 |
| Pfrx | 1 | 3.57e6 | 4.02e6 | 4.07e6 |
| Pfrx | 2 | 3.59e6 | 4.16e6 | 3.94e6 |
| Obp73a | 1 | 3.56e6 | 4.03e6 | 4.04e6 |
| Gk1 | 1 | 3.46e6 | 3.99e6 | 3.84e6 |
| Gk1 | 2 | 3.50e6 | 4.00e6 | 3.93e6 |
| CG1638 | 1 | 3.44e6 | 3.89e6 | 3.92e6 |
| Mlh1 | 1 | 3.58e6 | 4.07e6 | 4.05e6 |
| CG14107 | 1 | 3.29e6 | 3.59e6 | 3.81e6 |
| CG6254 | 1 | 3.50e6 | 3.84e6 | 4.09e6 |
| hry | 1 | 3.10e6 | 3.60e6 | 3.64e6 |
| hry | 2 | 3.38e6 | 3.66e6 | 4.04e6 |
| Nlp | 1 | 3.42e6 | 3.85e6 | 3.92e6 |
| CG8079 | 1 | 3.60e6 | 4.03e6 | 4.14e6 |
| CG8079 | 2 | 3.55e6 | 4.10e6 | 3.91e6 |
| Ent2 | 1 | 3.45e6 | 3.86e6 | 3.86e6 |
| lncRNA:CR32553 | 1 | 3.42e6 | 3.91e6 | 3.89e6 |
| hzg | 1 | 3.35e6 | 3.80e6 | 3.74e6 |

Looked up above.
stac #2, viability with MMS, replicate 1: 3.81e6
Result of CG14107 under “viability with MMS, replicate 1”: 3.59e6
For “viability with MMS, replicate 1”, Svil #5 reads 4.05e6
For “viability with MMS, replicate 2”, SmydA-5 is entered as 3.80e6
